Data set [1] concerns Trypanosoma cruzi (Tulahuen C4). The experiment in a line: In vitro anti-T. cruzi activity (β-galactosidase CPRG colorimetric assay in VERO monolayer). It is filed as cell-based.
Data set [2] deals with axenic amastigotes of L. amazonensis (strain MHOM/BR/76/LTB-012). Particulars: IC50, macrophage/IC50, L. amazonensis; Table 7.
Another data set concerns VERO cells. The experiment in a line: VERO cells IC50 (Table 5). It is filed as cell-based, African green monkey. The settings on record: printed in the VERO IC50 cell of Table 5.
Where [3] appears, read: IC50, VERO/IC50, T. cruzi, Table 2.
[4] abbreviates: Selectivity index = IC50, VERO/IC50, T. cruzi, Table 3.

Molecules are shown by their SMILES. Where “and” joins values, the source holds several entries; their conditions need not be identical. Equal values may be shown once.

The results in this text go back to patent US9061984B2 (University of Louisville Research Foundation, Inc., priority 2008, dated 2015).

Compound `COc1ccc(/C=C/C(=O)c2c(O)cc(O)cc2OC)cc1` [Compound I-05, (E)-1-(2,4-Dihydroxy-6-methoxyphenyl)-3-(4-methoxyphenyl)-2-propen-1-one] displayed an SI in data set [1] (setting [3]) of 0.84.

Regarding `COc1cc(O)cc(O)c1C(=O)/C=C/c1ccc2c(c1)OCO2` [Compound I-06, (2E)-3-(1,3-Benzodioxol-5-yl)-1-(2,4-dihydroxy-6-methoxyphenyl)-2-propen-1-one], the SI in data set [1] (setting [3]) is given as 2.69; in data set [1] (setting [4]), 2.7.

For `C=CCOc1cc(OC)c(C(=O)/C=C/c2ccccc2)c(OCC=C)c1` [Compound I-08, (2E)-1-[2-Methoxy-4,6-bis(2-propenyloxy)phenyl]-3-(phenyl)-2-propen-1-one], the SI amounted to 0.90 in data set [1] (setting [3]) and 1.0 in data set [1] (setting [4]).

`C=CCOc1cc(OC)c(C(=O)/C=C/c2ccc(O)cc2)c(OCC=C)c1` [Compound I-09, (2E)-1-[2-Methoxy-4,6-bis(2-propenyloxy)phenyl]-3-(4-hydroxyphenyl)-2-propen-1-one]: the SI in data set [1] (setting [3]) amounted to 3.76; in data set [1] (setting [4]) it was 3.8.

For `C=CCOc1cc(OC)c(C(=O)/C=C/c2ccc(OC)cc2)c(OCC=C)c1` [Compound I-10, (2E)-1-[2-Methoxy-4,6-bis(2-propenyloxy)phenyl]-3-(4-methoxyphenyl)-2-propen-1-one], the SI is 6.59 and 4.67 in data set [1] (setting [3]); 4.7 in data set [1] (setting [4]).

Regarding `C=CCOc1cc(OC)c(C(=O)/C=C/c2cccc(OC)c2)c(OCC=C)c1` [Compound I-11, (2E)-1-[2-Methoxy-4,6-bis(2-propenyloxy)phenyl]-3-(3-methoxyphenyl)-2-propen-1-one], the SI in data set [1] (setting [3]) is on record as 10.06.

For the compound `C=CCOc1cc(OC)c(C(=O)/C=C/c2ccc(C(F)(F)F)cc2)c(OCC=C)c1` [Compound I-12, (2E)-1-[2-Methoxy-4,6-bis(2-propenyloxy)phenyl]-3-[4-(trifluoromethyl)phenyl]-2-propen-1-one], the SI in data set [1] (setting [3]) was determined as 0.46; in data set [1] (setting [4]), 0.5.

Regarding `C=CCOc1cc(OC)c(C(=O)/C=C/c2ccc([N+](=O)[O-])cc2)c(OCC=C)c1` [Compound I-13, (2E)-1-[2-Methoxy-4,6-bis(2-propenyloxy)phenyl]-3-(4-nitrophenyl)-2-propen-1-one], the SI is reported as 3.09 in data set [1] (setting [3]) and 3.1 in data set [1] (setting [4]).

Take `C=CCOc1cc(OC)c(C(=O)/C=C/c2ccc(Cl)cc2)c(OCC=C)c1` [Compound I-14, (2E)-3-(4-Chlorophenyl)-1-[2-methoxy-4,6-bis(2-propenyloxy)phenyl]-2-propen-1-one]: the SI in data set [1] (setting [3]) amounted to 1.21; in data set [1] (setting [4]), 1.2.

Take `C=CCOc1cc(OC)c(C(=O)/C=C/c2ccccc2F)c(OCC=C)c1` [Compound I-15, (2E)-3-(2-Fluorophenyl)-1-[2-methoxy-4,6-bis(2-propenyloxy)phenyl]-2-propen-1-one]: the values for the SI in data set [1] (setting [3]) and in data set [1] (setting [4]) were 2.62 and 2.6, respectively.

In data set [1] (setting [3]), `C=CCOc1cc(OC)c(C(=O)/C=C/c2ccc(OC)cc2OC)c(OCC=C)c1` [Compound I-17, (2E)-3-(2,4-Dimethoxyphenyl)-1-[2-methoxy-4,6-bis(2-propenyloxy)phenyl]-2-propen-1-one] came in with an SI of 7.06.

For `C=CCOc1cc(OC)c(C(=O)/C=C/c2ccc3c(c2)OCO3)c(OCC=C)c1` [Compound I-19, (2E)-3-(1,3-Benzodioxol-5-yl)-1-[2-methoxy-4,6-bis(2-propenyloxy)phenyl]-2-propen-1-one], the SI in data set [1] (setting [3]) is 6.68 and 5.42; in data set [1] (setting [4]), 5.4.

The compound `C=CCOc1cc(OC)c(C(=O)/C=C/c2cc(OC)c(OC)c(OC)c2)c(OCC=C)c1` [Compound I-20, (2E)-1-[2-Methoxy-4,6-bis(2-propenyloxy)phenyl]-3-(3,4,5-trimethoxyphenyl)-2-propen-1-one] had an SI in data set [1] (setting [3]) of 12.00.

For `C=CCOc1cc(OC)c(C(=O)/C=C/c2ccc(F)cc2)c(OCC=C)c1` [Compound I-23, (2E)-3-(4-Fluorophenyl)-1-[2-methoxy-4,6-bis(2-propenyloxy)phenyl]-2-propen-1-one], the SI in data set [1] (setting [3]) stood at 0.95; in data set [1] (setting [4]) it was 0.9.

As for `C=CCOc1cc(OC)c(C(=O)/C=C/c2ccc(C)cc2)c(OCC=C)c1` [Compound I-24, (2E)-1-[2-Methoxy-4,6-bis(2-propenyloxy)phenyl]-3-(4-methylphenyl)-2-propen-1-one], in data set [1] (setting [3]), the SI was determined as 12.26.

Turning to `C=CCOc1cc(OC)c(C(=O)/C=C/c2cc(OCC=C)c(Br)c(OCC=C)c2)c(OCC=C)c1` [Compound I-25, (2E)-3-(3,5-Bis(2-propenyloxy)-4-bromophenyl)-1-[2-methoxy-4,6-bis(2-propenyloxy)phenyl]-2-propen-1-one], in data set [1] (setting [3]), the SI is given as 13.94.

Take `C=CCOc1cc(OC)c(C(=O)/C=C/c2ccncc2)c(OCC=C)c1` [Compound I-26, (2E)-1-[2-Methoxy-4,6-bis(2-propenyloxy)phenyl]-3-(4-pyridinyl)-2-propen-1-one]: the SI in data set [1] (setting [3]) was found to be 1.92; in data set [1] (setting [4]), 1.9.

`C=CCOc1cc(OC)c(C(=O)/C=C/c2ccco2)c(OCC=C)c1` [Compound I-28, (2E)-3-(2-furanyl)-1-[2-methoxy-4,6-bis(2-propenyloxy)phenyl]-2-propen-1-one]: the SI in data set [1] (setting [3]) amounted to 15.70.

Take `COc1cc(O)cc(O)c1C(=O)/C=C/c1ccccc1` [Compound I-29, (2E)-1-(2,4-Dihydroxy-6-methoxyphenyl)-3-(phenyl)-2-propen-1-one]: in data set [2], the SI is given as 1.7.

As for `COc1cc(O)cc(O)c1C(=O)/C=C/c1ccc(O)cc1` [Compound I-30, (2E)-1-(2,4-Dihydroxy-6-methoxyphenyl)-3-(4-hydroxyphenyl)-2-propen-1-one], the SI in data set [2] is on record as 1.4.

For `COc1cccc(/C=C/C(=O)c2c(O)cc(O)cc2OC)c1` [Compound I-31, (2E)-1-(2,4-Dihydroxy-6-methoxyphenyl)-3-(3-methoxyphenyl)-2-propen-1-one], in data set [2], the SI turned out to be 1.5.

As to `COc1cc(O)cc(O)c1C(=O)/C=C/c1ccc(C(F)(F)F)cc1` [Compound I-32, (2E)-1-(2,4-Dihydroxy-6-methoxyphenyl)-3-[4-(trifluoromethyl)phenyl]-2-propen-1-one], in data set [2], the SI was found to be 2.0.

Consider `COc1cc(O)cc(O)c1C(=O)/C=C/c1ccc(Cl)cc1` [Compound I-33, (2E)-3-(4-Chlorophenyl)-1-(2,4-dihydroxy-6-methoxyphenyl)-2-propen-1-one], for which the SI in data set [2] is 1.7.

Consider `COc1cc(O)cc(O)c1C(=O)/C=C/c1ccccc1F` [Compound I-34, (2E)-1-(2,4-Dihydroxy-6-methoxyphenyl)-3-(2-fluorophenyl)-2-propen-1-one], for which the SI in data set [2] came to 1.4.

With `COc1cc(O)cc(O)c1C(=O)/C=C/c1ccccc1Br` [Compound I-35, (2E)-3-(2-Bromophenyl)-1-(2,4-dihydroxy-6-methoxyphenyl)-2-propen-1-one], the SI in data set [2] is recorded as 1.4.

Compound `COc1ccc(/C=C/C(=O)c2c(O)cc(O)cc2OC)c(OC)c1` [Compound I-36, (2E)-1-(2,4-Dihydroxy-6-methoxyphenyl)-3-(2,4-dimethoxyphenyl)-2-propen-1-one] had an SI in data set [2] of more than 50.

On to `COc1cc(O)cc(O)c1C(=O)/C=C/c1ccc(F)cc1` [Compound I-40, (2E)-1-(2,4-Dihydroxy-6-methoxyphenyl)-3-(4-fluorophenyl)-2-propen-1-one], for which the SI in data set [2] was 2.4.

Consider `COc1cc(O)cc(O)c1C(=O)/C=C/c1ccc(C)cc1` [Compound I-41, (2E)-1-(2,4-Dihydroxy-6-methoxyphenyl)-3-(4-methylphenyl)-2-propen-1-one], for which, in data set [2], the SI was 2.2.

As to `Fc1ccccc1/C=N\Nc1ncnc2sc3c(c12)CCCC3` [II-27], the SI in the data set with VERO cells is on record as 9.

As to `Clc1ccc(/C=N\Nc2ncnc3sc4c(c23)CCCC4)cc1` [II-28], the SI with VERO cells is not below 10.
